PubChem BioAssay AID652243, Drosophila RNAi Screening Center, 2013
The deposit covers about 24,000 reagents; this is a random part of those that have a named target and a result. In the full data, 246 (1%) were called active. 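Plates not normalised; calls are printed but the firefly/Renilla ratio behind them is not deposited; fold cut for lowering reported inconsistently.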 Raw values are not corrected between plates. Not given: the amount of reagent.

Purpose: 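Fly regulators of androgen-dependent reporter output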 (primary screen)
Cells: Drosophila S2R+ cells
Knock-down reagent: long dsRNA against Drosophila genes
Timing: 72 h (48 h, then 24 h hormone)
Challenge: synthetic androgen R1881 at 10 nM for 24 h
Measurement: 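Firefly light from an androgen-responsive reporter and Renilla control light per well, raw and unnormalised, for each of two replicates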
Reading the numbers: firefly reporter light: higher = more light from androgen-responsive reporter; Renilla control light: higher = more constitutive control signal (cell number, transfection)
Call rule: 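Across duplicate plates, a knock-down whose log firefly/Renilla ratio shifted a set fold down or up from the GFP/LacZ control mean was a hit; the downward cut appears as both 1.5 and 3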
Calls: active = hit: reporter lowered or raised; inactive = no hit

The first 2 records as a preview:
EMC5 [DRSC02469]
- firefly reporter light, replicate 1: 2.41e5
- firefly reporter light, replicate 2: 1.82e5
- Renilla control light, replicate 1: 2.06e6
- Renilla control light, replicate 2: 2.44e6
- Outcome: inactive

Naa30B [DRSC08245]
- firefly reporter light, replicate 1: 75088
- firefly reporter light, replicate 2: 1.12e5
- Renilla control light, replicate 1: 1.40e6
- Renilla control light, replicate 2: 1.49e6
- Outcome: inactive

Results, from the first entry:
EMC5 [DRSC02469]
- firefly reporter light, replicate 1: 2.41e5
- firefly reporter light, replicate 2: 1.82e5
- Renilla control light, replicate 1: 2.06e6
- Renilla control light, replicate 2: 2.44e6
- Outcome: inactive

Naa30B [DRSC08245]
- firefly reporter light, replicate 1: 75088
- firefly reporter light, replicate 2: 1.12e5
- Renilla control light, replicate 1: 1.40e6
- Renilla control light, replicate 2: 1.49e6
- Outcome: inactive

Rpn2 [DRSC16839]
- firefly reporter light, replicate 1: 62975
- firefly reporter light, replicate 2: 79130
- Renilla control light, replicate 1: 6.78e5
- Renilla control light, replicate 2: 5.61e5
- Outcome: inactive

lncRNA:CR34052 [DRSC37874]
- firefly reporter light, replicate 1: 8.94e5
- firefly reporter light, replicate 2: 7.84e5
- Renilla control light, replicate 1: 2.20e6
- Renilla control light, replicate 2: 1.77e6
- Outcome: inactive

Cpr47Ee [DRSC23164]
- firefly reporter light, replicate 1: 7.41e5
- firefly reporter light, replicate 2: 1.09e6
- Renilla control light, replicate 1: 1.08e6
- Renilla control light, replicate 2: 1.35e6
- Outcome: inactive

bond [DRSC16135]
- firefly reporter light, replicate 1: 46140
- firefly reporter light, replicate 2: 69531
- Renilla control light, replicate 1: 4.94e5
- Renilla control light, replicate 2: 5.01e5
- Outcome: inactive

bond [DRSC23724]
- firefly reporter light, replicate 1: 7.97e5
- firefly reporter light, replicate 2: 7.01e5
- Renilla control light, replicate 1: 8.98e5
- Renilla control light, replicate 2: 9.36e5
- Outcome: inactive

CG18171 [DRSC08524]
- firefly reporter light, replicate 1: 36284
- firefly reporter light, replicate 2: 84560
- Renilla control light, replicate 1: 7.94e5
- Renilla control light, replicate 2: 8.72e5
- Outcome: inactive

CG18171 [DRSC26270]
- firefly reporter light, replicate 1: 2.62e5
- firefly reporter light, replicate 2: 3.82e5
- Renilla control light, replicate 1: 2.86e5
- Renilla control light, replicate 2: 5.22e5
- Outcome: inactive

mus302 [DRSC09905]
- firefly reporter light, replicate 1: 2.16e5
- firefly reporter light, replicate 2: 2.38e5
- Renilla control light, replicate 1: 2.13e6
- Renilla control light, replicate 2: 2.00e6
- Outcome: inactive

CG14238 [DRSC14732]
- firefly reporter light, replicate 1: 1.22e5
- firefly reporter light, replicate 2: 1.61e5
- Renilla control light, replicate 1: 1.61e6
- Renilla control light, replicate 2: 1.64e6
- Outcome: inactive

CG14238 [DRSC29545]
- firefly reporter light, replicate 1: 4.44e5
- firefly reporter light, replicate 2: 5.78e5
- Renilla control light, replicate 1: 8.42e5
- Renilla control light, replicate 2: 8.42e5
- Outcome: inactive
